Reference: patent publication US7807673B2, “2-pyrimidinyl pyrazolopyridine ErbB kinase inhibitors” (GlaxoSmithKline LLC, priority 2005, dated 2010)
At least one structure is not confirmed: it was looked up by name or label, or the drawing left a doubt.

Target: T1, ErbB2 or EGFR
T1 construct: enzymes purified from a baculovirus expression system
Assay: ErbB enzyme substrate phosphorylation assay (HTRF), Method B (enzyme pre-incubated with compound 1 hour)
Format: biochemical
Conditions: Table 1, enzyme Method B: enzyme mix incubated with compound 1 hour at 20° C., reaction started with substrate mix; class over ErbB2 or EGFR
Experimental: Compounds of the present invention were tested for EGFR, ErbB-2, and ErbB-4 protein tyrosine kinase inhibitory activity in substrate phosphorylation assays using enzymes purified from a baculovirus expression system. Reagent production was conducted essentially as described in Brignola, P. S., et al, (2002) J. Biol. Chem. 277(2): 1576-1585.
The method measures the ability of the isolated enzyme to catalyse the transfer of the gamma-phosphate from ATP onto the tyrosine residue of a biotinylated synthetic peptide referenced “Peptide C” in Brignola, P. S., et al, (2002) J. Biol. Chem. 277(2):1576-1585. The extent of tyrosine phosphorylation was measured using an anti-phosphotyrosine antibody, and quantified by homogenous time-resolved fluorescence (HTRF). […]
After initiating the reaction with either method describe above, the reactions were allowed to proceed for 90 minutes at 20° C. […] Assay plates were left unsealed and were counted in a Wallac Multilabel Counter 1420 (PerkinElmer). […]
The data for dose responses were plotted as % Inhibition calculated with the data reduction formula 100*(1−(U1−C2)/(C1−C2)) versus concentration of compound where U is the unknown value, C1 is the average control value obtained for 4.76% DMSO, and C2 is the average control value obtained for 0.035 M EDTA. […] The results for each compound were recorded as pIC50s, calculated as follows: pIC50=−Log 10(K)

For Cc1ncoc1-c1cccc(Nc2nccc(-c3c(-c4cccc(NC(=O)Cc5cccs5)c4)nn4ccccc34)n2)c1 [Example 52, N-{3-[3-(2-{[3-(4-methyl-1,3-oxazol-5-yl)phenyl]amino}pyrimidin-4-yl)pyrazolo[1,5-a]pyridin-2-yl]phenyl}-2-(2-thienyl)acetamide], the “Activity (Method)” value was “+++ (B) (at least one pIC50 measurement of greater than 7 against either ErbB2 or EGFR)”.
